Some of the results follow.

The chains behind the UniProt entries cited, without tags or fusion partners. Where a name states a change or a piece, a line headed by the entry shows the natural chain unless it says otherwise.
UniProt P01023, whole entry, looked up: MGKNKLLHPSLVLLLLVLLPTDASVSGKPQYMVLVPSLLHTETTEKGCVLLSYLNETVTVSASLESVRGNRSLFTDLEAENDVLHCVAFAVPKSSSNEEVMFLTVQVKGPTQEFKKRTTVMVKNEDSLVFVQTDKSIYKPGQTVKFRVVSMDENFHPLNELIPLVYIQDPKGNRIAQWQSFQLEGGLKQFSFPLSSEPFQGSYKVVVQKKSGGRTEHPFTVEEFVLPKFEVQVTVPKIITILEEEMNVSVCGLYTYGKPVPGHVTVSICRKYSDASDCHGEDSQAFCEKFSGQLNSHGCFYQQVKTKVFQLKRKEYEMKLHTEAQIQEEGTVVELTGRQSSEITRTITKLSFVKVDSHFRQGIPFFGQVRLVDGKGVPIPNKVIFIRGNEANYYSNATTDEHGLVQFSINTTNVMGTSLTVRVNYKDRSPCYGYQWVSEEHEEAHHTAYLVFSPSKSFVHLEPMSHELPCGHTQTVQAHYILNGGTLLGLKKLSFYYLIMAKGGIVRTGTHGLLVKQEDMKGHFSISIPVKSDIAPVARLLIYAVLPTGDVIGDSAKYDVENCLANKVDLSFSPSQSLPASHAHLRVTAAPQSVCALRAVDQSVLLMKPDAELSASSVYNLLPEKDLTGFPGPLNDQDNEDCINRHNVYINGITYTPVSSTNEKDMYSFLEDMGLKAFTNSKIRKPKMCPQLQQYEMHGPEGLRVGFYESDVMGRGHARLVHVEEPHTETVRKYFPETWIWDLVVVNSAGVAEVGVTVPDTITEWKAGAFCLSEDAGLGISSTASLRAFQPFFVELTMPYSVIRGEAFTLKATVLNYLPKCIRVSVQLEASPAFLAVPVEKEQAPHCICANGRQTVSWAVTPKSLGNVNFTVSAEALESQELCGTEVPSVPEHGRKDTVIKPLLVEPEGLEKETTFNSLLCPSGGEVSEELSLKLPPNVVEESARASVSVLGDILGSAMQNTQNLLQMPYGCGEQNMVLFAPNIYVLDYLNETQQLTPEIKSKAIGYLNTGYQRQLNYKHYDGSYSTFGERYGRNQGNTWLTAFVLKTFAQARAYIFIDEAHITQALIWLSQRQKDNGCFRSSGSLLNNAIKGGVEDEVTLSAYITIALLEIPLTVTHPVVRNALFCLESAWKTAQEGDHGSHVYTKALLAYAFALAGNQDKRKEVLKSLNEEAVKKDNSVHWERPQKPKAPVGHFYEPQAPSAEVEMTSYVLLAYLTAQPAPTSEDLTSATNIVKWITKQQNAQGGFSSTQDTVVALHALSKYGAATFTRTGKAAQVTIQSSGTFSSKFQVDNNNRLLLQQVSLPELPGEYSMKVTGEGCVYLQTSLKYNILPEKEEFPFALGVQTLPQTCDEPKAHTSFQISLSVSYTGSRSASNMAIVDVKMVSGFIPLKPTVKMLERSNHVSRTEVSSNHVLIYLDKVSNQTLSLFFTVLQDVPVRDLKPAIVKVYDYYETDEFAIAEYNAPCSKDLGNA
UniProt Q9UKU7: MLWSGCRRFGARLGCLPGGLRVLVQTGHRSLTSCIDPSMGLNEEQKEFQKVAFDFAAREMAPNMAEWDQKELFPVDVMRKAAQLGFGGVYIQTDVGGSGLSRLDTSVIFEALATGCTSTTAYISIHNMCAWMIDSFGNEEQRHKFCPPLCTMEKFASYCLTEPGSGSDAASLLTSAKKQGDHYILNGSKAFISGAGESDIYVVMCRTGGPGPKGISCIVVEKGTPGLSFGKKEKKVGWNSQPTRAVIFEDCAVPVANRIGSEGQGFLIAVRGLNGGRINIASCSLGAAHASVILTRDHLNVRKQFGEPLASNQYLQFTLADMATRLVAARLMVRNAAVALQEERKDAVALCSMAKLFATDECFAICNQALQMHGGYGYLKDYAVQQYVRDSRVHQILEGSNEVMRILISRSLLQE
UniProt Q9UKV3: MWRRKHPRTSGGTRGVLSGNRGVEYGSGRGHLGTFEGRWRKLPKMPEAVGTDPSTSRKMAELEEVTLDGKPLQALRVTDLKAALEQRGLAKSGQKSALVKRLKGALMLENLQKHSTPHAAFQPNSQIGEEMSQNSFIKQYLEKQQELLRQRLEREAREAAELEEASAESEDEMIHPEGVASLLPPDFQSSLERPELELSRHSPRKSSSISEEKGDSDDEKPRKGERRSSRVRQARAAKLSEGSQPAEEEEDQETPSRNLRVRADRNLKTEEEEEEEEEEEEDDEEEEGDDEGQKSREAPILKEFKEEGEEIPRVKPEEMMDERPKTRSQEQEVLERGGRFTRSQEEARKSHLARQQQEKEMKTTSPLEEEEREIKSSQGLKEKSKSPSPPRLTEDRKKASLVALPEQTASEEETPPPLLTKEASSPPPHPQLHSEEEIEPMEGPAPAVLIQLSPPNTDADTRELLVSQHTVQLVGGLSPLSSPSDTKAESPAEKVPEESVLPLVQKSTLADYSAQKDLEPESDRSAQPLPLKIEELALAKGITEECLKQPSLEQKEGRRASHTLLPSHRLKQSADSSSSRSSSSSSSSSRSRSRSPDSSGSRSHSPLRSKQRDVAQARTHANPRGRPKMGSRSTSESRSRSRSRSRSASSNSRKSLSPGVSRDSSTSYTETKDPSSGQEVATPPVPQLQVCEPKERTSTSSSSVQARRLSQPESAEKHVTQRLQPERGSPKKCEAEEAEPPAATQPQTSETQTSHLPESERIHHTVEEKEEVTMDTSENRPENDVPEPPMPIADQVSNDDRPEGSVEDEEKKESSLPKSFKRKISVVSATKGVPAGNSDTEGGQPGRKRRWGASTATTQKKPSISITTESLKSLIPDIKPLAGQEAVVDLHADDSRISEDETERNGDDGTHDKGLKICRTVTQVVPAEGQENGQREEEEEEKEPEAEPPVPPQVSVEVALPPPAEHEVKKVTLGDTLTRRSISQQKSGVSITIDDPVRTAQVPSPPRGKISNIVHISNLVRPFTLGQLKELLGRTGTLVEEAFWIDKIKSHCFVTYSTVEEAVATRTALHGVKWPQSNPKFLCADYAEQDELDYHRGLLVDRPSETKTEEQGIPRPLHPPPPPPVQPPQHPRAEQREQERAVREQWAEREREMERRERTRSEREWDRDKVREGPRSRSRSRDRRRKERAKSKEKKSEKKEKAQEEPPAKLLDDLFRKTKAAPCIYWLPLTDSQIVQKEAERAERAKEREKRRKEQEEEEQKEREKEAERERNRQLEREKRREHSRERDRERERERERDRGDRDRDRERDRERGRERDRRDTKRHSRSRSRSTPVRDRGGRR
UniProt P49588, whole entry, looked up: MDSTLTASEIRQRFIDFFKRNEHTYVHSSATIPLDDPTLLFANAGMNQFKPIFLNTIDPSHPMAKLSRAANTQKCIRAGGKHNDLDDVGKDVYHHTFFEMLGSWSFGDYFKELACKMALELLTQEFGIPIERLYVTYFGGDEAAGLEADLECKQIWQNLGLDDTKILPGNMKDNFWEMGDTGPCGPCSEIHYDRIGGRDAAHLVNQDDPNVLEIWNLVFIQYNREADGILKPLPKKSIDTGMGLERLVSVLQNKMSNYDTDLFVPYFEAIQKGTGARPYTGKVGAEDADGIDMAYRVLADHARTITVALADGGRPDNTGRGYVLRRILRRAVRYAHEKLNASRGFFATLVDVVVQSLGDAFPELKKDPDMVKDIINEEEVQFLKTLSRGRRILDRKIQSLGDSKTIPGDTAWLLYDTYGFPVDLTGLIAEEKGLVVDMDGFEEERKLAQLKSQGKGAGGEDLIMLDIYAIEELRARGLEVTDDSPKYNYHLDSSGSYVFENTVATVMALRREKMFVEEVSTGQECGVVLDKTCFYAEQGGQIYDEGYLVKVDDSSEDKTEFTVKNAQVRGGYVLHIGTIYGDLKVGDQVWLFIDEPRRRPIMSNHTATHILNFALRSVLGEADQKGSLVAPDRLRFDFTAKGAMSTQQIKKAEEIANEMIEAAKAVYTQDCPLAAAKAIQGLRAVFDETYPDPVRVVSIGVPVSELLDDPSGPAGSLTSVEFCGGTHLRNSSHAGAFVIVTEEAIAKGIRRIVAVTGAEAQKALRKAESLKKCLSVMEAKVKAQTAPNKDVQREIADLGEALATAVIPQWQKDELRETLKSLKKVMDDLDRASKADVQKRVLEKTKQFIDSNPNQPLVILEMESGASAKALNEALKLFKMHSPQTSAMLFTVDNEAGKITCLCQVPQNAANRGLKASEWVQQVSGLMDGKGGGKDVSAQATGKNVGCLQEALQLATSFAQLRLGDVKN
UniProt Q9H3P7: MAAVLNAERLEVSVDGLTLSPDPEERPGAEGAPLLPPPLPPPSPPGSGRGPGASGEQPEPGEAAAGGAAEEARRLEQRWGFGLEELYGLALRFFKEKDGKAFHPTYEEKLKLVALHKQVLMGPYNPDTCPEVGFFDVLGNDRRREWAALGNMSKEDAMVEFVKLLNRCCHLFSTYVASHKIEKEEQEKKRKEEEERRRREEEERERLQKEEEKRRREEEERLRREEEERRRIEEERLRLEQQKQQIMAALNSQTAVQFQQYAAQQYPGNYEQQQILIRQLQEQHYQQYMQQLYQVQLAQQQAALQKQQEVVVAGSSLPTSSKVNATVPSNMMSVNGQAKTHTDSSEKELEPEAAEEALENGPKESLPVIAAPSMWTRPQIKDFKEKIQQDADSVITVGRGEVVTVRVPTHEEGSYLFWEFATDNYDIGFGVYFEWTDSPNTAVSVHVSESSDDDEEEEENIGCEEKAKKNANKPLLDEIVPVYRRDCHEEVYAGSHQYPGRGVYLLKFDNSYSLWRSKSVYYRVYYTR
UniProt Q9H7C9: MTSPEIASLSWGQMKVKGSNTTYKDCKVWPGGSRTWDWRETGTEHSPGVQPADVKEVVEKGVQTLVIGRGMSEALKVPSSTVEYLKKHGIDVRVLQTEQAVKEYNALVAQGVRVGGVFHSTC
UniProt P61163, whole entry, looked up: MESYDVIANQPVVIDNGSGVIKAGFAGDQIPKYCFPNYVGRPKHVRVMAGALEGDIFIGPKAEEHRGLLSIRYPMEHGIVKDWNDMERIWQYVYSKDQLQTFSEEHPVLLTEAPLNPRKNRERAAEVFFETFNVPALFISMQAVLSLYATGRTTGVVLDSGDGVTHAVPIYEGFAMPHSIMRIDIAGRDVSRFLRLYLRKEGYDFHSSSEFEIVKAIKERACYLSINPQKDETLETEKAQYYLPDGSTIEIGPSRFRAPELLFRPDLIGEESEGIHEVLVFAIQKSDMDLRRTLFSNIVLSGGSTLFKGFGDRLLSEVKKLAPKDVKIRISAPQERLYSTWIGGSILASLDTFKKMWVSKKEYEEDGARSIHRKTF
UniProt Q96IU4: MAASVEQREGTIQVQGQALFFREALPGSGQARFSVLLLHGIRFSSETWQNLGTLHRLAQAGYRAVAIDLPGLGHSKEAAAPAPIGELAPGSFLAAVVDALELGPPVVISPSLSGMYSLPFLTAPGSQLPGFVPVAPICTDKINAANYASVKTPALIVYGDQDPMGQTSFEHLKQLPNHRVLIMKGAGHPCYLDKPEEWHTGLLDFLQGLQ
UniProt Q9ULC5: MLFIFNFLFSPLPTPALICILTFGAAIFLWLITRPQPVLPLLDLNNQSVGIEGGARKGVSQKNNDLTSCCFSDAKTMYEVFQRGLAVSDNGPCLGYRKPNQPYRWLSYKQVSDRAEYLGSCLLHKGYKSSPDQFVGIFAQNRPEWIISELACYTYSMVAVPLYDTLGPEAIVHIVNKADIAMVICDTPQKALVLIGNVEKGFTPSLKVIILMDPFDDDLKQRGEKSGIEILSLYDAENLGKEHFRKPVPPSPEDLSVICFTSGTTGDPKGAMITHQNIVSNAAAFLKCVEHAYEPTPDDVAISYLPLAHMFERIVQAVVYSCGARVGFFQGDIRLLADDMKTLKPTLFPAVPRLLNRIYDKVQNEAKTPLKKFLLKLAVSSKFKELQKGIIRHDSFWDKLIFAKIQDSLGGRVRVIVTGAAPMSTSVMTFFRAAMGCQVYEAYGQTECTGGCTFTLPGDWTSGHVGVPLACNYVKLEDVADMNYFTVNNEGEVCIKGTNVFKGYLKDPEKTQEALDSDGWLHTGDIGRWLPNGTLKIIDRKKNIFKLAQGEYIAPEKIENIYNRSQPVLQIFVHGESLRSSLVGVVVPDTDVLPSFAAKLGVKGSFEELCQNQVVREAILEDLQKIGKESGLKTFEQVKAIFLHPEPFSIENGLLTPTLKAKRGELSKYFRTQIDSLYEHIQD
UniProt P11310: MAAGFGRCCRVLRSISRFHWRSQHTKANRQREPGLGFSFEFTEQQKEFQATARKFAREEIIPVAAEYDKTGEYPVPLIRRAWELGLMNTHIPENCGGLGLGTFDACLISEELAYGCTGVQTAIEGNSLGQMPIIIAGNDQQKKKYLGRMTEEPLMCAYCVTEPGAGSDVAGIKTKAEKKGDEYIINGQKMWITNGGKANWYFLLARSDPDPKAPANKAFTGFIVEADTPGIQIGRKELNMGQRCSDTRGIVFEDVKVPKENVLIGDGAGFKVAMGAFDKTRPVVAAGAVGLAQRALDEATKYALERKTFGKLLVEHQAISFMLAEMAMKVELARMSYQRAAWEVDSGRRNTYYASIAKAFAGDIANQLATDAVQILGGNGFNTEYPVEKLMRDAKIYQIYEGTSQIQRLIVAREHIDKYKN

Compound in one assay: Cn1cc(-c2ccc3nnc(C(F)(F)c4ccc5ncccc5c4)n3n2)cn1
The experiment in a line: log2 fold change, soluble protein after heating vs DMSO (PISA); higher = thermal stabilisation; K562 cells, 10 uM, 30 min; active = over 0.2 and 3.5 SD of the protein, either way, in both replicates (recomputed). Summed up:
(§1)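 K562 cells (2×10^6 cells/mL) were treated with 10 μM compound for 30 min, and aliquots were heated for 3 min over 48°C-58°C. Pooled aliquots were extracted in PBS with 0.5% NP-40 at 4°C, and the supernatant after 21,000xg for 90 min was measured by TMTpro 16plex LC-MS/MS with channel sums equalised. Reported thermal stability, relative to control samples and from duplicates, is a log2 fold change.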
Consider ACTR2 (UniProt P61160), for which the log2 fold change was inactive: -0.014.
The same measure, in the same setting: the figure for ACBD6 (UniProt Q9BR61) is inactive: 0.056.
On to ACTR10 (UniProt Q9NZ32), for which the log2 fold change is inactive: -0.032.
Still for that read-out and setting: for ACSS1 (UniProt Q9NUB1) the value was inactive: 0.012; for A2M (UniProt P01023), inactive: -0.124; for ACAD8 (UniProt Q9UKU7), inactive: 0.073.
For the target ACTR6 (UniProt Q9GZN1), the log2 fold change was inactive: 0.371.
With ABLIM1 (UniProt O14639), the log2 fold change was inactive: -0.061.
Still for that read-out and setting: for ACP2 (UniProt P11117) the value was inactive: 0.03; for ABCB10 (UniProt Q9NRK6), inactive: 0.025; for ABCB8 (UniProt Q9NUT2), inactive: 0.05.
The same measure, in the same setting: the figure for ADAM10 (UniProt O14672) is inactive: 0.003.
Same read-out and setting: for ADAT2 (UniProt Q7Z6V5) the value was inactive: 0.015; for ACOT7 isoform 7 (UniProt O00154), inactive: 0.033.
Turning to ACADSB (UniProt P45954), the log2 fold change was inactive: -0.032.
The same measure, in the same setting: for ADAM9 (UniProt Q13443) the value was inactive: 0.053; for ABCE1 (UniProt P61221), inactive: 0.005; for ACAT2 (UniProt Q9BWD1), inactive: -0.001.
Still for that read-out and setting: the figure for ACOT8 (UniProt O14734) is inactive: -0.029; for ACIN1 (UniProt Q9UKV3) it is inactive: -0.027; for ADAR isoform 4 (UniProt P55265) it is inactive: -0.101.
Still for that read-out and setting: the figure for AARS (UniProt P49588) is inactive: 0.022; for ACTN4 (UniProt O43707) it is inactive: -0.017.
As for ACBD3 (UniProt Q9H3P7), the log2 fold change is inactive: -0.004.
Same read-out and setting: the figure for ACTR3 (UniProt P61158) is inactive: -0.02; for ACSL1 (UniProt P33121) it is inactive: 0.024.
The same measure, in the same setting: for ABHD17A isoform 2 (UniProt Q96GS6) the value was inactive: 0.068; for AAMP (UniProt Q13685), inactive: -0.028.
With ACLY (UniProt P53396), the log2 fold change is inactive: 0.023.
Still for that read-out and setting: for AAMDC (UniProt Q9H7C9) the value was inactive: 0.122.
The same measure, in the same setting: for ACTR1A (UniProt P61163) the value was inactive: 0.026; for ACAD9 (UniProt Q9H845), inactive: 0.014; for ABHD14B (UniProt Q96IU4), inactive: 0.024.
Same read-out and setting: the figure for ACAA2 (UniProt P42765) is inactive: 0.04; for ABCC1 (UniProt P33527) it is inactive: 0.002; for ACSL5 isoform 3 (UniProt Q9ULC5) it is inactive: 0.007.
For the target ACADM isoform 2 (UniProt P11310), the log2 fold change is inactive: 0.024.

Compound in another assay: Cn1cncc1[C@@](N)(c1ccc(Cl)cc1)c1ccc2c(c1)c(-c1cccc(Cl)c1)cc(=O)n2C [tipifarnib]
The assay is described as above. In a few lines:
as §1
Turning to ACTR2 (UniProt P61160), the log2 fold change is inactive: -0.001.
Same read-out and setting: for ACBD6 (UniProt Q9BR61) the value was inactive: -0.072.
On the same count and under the same terms, the figure for ACTR10 (UniProt Q9NZ32) is inactive: 0.028.
Still for that read-out and setting: for ACSS1 (UniProt Q9NUB1) the value was inactive: 0.027; for A2M (UniProt P01023), inactive: 0.02; for ACAD8 (UniProt Q9UKU7), inactive: 0.034.
With ACTR6 (UniProt Q9GZN1), the log2 fold change is inactive: -0.025.
The same measure, in the same setting: for ABLIM1 (UniProt O14639) the value was inactive: -0.049; for ACP2 (UniProt P11117), inactive: 0.061.
Still for that read-out and setting: for ABCB10 (UniProt Q9NRK6) the value was inactive: 0.036.
The same measure, in the same setting: the figure for ABCB8 (UniProt Q9NUT2) is inactive: -0.001; for ADAM10 (UniProt O14672) it is inactive: 0.023.
Consider ADAT2 (UniProt Q7Z6V5), for which the log2 fold change is inactive: -0.013.
As for ACOT7 isoform 7 (UniProt O00154), the log2 fold change is inactive: -0.023.
Same read-out and setting: the figure for ACADSB (UniProt P45954) is inactive: -0.011.
The same measure, in the same setting: the figure for ADAM9 (UniProt Q13443) is inactive: 0.028.
The same measure, in the same setting: the figure for ABCE1 (UniProt P61221) is inactive: -0.002.
Consider ACAT2 (UniProt Q9BWD1), for which the log2 fold change is inactive: -0.079.
With ACOT8 (UniProt O14734), the log2 fold change is inactive: -0.012.
Still for that read-out and setting: the figure for ACIN1 (UniProt Q9UKV3) is inactive: 0.026.
The same measure, in the same setting: for ADAR isoform 4 (UniProt P55265) the value was inactive: 0.087; for AARS (UniProt P49588), inactive: -0.03.
Same read-out and setting: for ACTN4 (UniProt O43707) the value was inactive: 0.011; for ACBD3 (UniProt Q9H3P7), inactive: -0.002; for ACTR3 (UniProt P61158), inactive: -0.017.
As to ACSL1 (UniProt P33121), the log2 fold change was inactive: -0.015.
On to ABHD17A isoform 2 (UniProt Q96GS6), for which the log2 fold change was inactive: -0.042.
Take AAMP (UniProt Q13685): the log2 fold change is inactive: -0.026.
Still for that read-out and setting: for ACLY (UniProt P53396) the value was inactive: 0.016; for AAMDC (UniProt Q9H7C9), inactive: -0.088; for ACTR1A (UniProt P61163), inactive: 0.044.
The same measure, in the same setting: for ACAD9 (UniProt Q9H845) the value was inactive: 0.055; for ABHD14B (UniProt Q96IU4), inactive: -0.079; for ACAA2 (UniProt P42765), inactive: 0.014.
Same read-out and setting: for ABCC1 (UniProt P33527) the value was inactive: 0.005; for ACSL5 isoform 3 (UniProt Q9ULC5), inactive: 0.043.
For the target ACADM isoform 2 (UniProt P11310), the log2 fold change is inactive: 0.012.

These data come from the supplement of paper PMC10849652.
